In US20190209501A1, “COMPOSITIONS AND METHODS OF USE OF BETA-HYDROXY-BETA-METHYLBUTYRATE (HMB) […] IN[…]” (Texas Tech University Office of Research Commercialization, priority 2018, published 2019):
For at least one compound, name, drawing or mass did not settle the structure.

What was measured:
Type in all cases: in vivo, human
[1] = Countermovement vertical jump (jump height); conditions: PP analysis; week 8; mean ± SE; method b87 expresses jump height in meters
Source text: For the CMVJ tests, participants completed eight trials while wearing their own footwear. Approximately 30 seconds rest separated each trial. Ground reaction force (GRF) data were obtained during the CMVJ using two force platforms sampled at 1 kHz (OPT464508; Advanced Mechanical Technology, Inc., Watertown, Mass. USA). Participants stood motionless with each foot positioned on a force platform and their hands on their hips before initiating the CMVJ with a countermovement action using a self-selected depth and jumping with maximum effort to achieve the highest vertical displacement possible. No instructions were provided for the landing phase except to land with each foot contacting its respective force platform from take-off and to stop downward motion and return to a motionless standing position. The raw GRF data from the two force platforms were smoothed using a fourth order low pass Butterworth digital filter with a 30 Hz cutoff frequency. The smoothed GRF from the two force platforms was then summed along the vertical axis to obtain the vertical GRF acting at the body center of mass. […] Jump time was then calculated as the time elapsed between the start of the CMVJ and take-off, expressed in units of seconds. Vertical jump height was calculated using the impulse-momentum relationship and expressed in units of meters.

[2] = Resting energy expenditure and substrate utilization (RQ) via indirect calorimetry; conditions: ITT; W 8
Procedure: REE and substrate utilization were assessed via indirect calorimetry (TrueOne 2400. ParvoMedics, Sandy, Utah, USA). Gas and flow calibrations were performed each morning according to manufacturer specifications, and the pre-assessment procedures of Compher et al. (34) were utilized. Participants were instructed to remain motionless but awake during the assessment, which took place in a climate-controlled room with the lights dimmed. The first five minutes of each test were discarded, and the assessment continued until there was a period of 5 consecutive minutes with a coefficient of variation (CV) for REE of ≤5%. The average CV for REE in the present study was 3.2±1.1% (mean±SD).

[3] = Questionnaires (Mood and Feelings, Pittsburgh Sleep Quality Index, Three-Factor Eating); conditions: ITT; Baseline; mean ± SE
Source text: As part of the screening procedures, participants were interviewed using a lifestyle questionnaire for determination of baseline eating and exercise habits. Participants completed follow-up lifestyle questionnaires at subsequent research visits. Additionally, participants completed the Mood and Feelings Questionnaire (38), the Pittsburgh Sleep Quality Index (39), the Three-Factor Eating Questionnaire Revised 18-item version (40) and a menstrual cycle questionnaire at each morning laboratory assessment session.

Compound: CC(C)(O)CC(=O)O [TRFHMB, β-hydroxy-β-methylbutyrate]
- Jump Height W 8 [1]: 0.24 ± 0 03
- RQ [2]: 0 79 ± 0.02 au
- TFEQ-EE score [3]: 5.4 ± 0 5
